These results are taken from doi:10.1101/438945.

Chains of the proteins cited; added tags and fusions are not shown.
UniProt P51587: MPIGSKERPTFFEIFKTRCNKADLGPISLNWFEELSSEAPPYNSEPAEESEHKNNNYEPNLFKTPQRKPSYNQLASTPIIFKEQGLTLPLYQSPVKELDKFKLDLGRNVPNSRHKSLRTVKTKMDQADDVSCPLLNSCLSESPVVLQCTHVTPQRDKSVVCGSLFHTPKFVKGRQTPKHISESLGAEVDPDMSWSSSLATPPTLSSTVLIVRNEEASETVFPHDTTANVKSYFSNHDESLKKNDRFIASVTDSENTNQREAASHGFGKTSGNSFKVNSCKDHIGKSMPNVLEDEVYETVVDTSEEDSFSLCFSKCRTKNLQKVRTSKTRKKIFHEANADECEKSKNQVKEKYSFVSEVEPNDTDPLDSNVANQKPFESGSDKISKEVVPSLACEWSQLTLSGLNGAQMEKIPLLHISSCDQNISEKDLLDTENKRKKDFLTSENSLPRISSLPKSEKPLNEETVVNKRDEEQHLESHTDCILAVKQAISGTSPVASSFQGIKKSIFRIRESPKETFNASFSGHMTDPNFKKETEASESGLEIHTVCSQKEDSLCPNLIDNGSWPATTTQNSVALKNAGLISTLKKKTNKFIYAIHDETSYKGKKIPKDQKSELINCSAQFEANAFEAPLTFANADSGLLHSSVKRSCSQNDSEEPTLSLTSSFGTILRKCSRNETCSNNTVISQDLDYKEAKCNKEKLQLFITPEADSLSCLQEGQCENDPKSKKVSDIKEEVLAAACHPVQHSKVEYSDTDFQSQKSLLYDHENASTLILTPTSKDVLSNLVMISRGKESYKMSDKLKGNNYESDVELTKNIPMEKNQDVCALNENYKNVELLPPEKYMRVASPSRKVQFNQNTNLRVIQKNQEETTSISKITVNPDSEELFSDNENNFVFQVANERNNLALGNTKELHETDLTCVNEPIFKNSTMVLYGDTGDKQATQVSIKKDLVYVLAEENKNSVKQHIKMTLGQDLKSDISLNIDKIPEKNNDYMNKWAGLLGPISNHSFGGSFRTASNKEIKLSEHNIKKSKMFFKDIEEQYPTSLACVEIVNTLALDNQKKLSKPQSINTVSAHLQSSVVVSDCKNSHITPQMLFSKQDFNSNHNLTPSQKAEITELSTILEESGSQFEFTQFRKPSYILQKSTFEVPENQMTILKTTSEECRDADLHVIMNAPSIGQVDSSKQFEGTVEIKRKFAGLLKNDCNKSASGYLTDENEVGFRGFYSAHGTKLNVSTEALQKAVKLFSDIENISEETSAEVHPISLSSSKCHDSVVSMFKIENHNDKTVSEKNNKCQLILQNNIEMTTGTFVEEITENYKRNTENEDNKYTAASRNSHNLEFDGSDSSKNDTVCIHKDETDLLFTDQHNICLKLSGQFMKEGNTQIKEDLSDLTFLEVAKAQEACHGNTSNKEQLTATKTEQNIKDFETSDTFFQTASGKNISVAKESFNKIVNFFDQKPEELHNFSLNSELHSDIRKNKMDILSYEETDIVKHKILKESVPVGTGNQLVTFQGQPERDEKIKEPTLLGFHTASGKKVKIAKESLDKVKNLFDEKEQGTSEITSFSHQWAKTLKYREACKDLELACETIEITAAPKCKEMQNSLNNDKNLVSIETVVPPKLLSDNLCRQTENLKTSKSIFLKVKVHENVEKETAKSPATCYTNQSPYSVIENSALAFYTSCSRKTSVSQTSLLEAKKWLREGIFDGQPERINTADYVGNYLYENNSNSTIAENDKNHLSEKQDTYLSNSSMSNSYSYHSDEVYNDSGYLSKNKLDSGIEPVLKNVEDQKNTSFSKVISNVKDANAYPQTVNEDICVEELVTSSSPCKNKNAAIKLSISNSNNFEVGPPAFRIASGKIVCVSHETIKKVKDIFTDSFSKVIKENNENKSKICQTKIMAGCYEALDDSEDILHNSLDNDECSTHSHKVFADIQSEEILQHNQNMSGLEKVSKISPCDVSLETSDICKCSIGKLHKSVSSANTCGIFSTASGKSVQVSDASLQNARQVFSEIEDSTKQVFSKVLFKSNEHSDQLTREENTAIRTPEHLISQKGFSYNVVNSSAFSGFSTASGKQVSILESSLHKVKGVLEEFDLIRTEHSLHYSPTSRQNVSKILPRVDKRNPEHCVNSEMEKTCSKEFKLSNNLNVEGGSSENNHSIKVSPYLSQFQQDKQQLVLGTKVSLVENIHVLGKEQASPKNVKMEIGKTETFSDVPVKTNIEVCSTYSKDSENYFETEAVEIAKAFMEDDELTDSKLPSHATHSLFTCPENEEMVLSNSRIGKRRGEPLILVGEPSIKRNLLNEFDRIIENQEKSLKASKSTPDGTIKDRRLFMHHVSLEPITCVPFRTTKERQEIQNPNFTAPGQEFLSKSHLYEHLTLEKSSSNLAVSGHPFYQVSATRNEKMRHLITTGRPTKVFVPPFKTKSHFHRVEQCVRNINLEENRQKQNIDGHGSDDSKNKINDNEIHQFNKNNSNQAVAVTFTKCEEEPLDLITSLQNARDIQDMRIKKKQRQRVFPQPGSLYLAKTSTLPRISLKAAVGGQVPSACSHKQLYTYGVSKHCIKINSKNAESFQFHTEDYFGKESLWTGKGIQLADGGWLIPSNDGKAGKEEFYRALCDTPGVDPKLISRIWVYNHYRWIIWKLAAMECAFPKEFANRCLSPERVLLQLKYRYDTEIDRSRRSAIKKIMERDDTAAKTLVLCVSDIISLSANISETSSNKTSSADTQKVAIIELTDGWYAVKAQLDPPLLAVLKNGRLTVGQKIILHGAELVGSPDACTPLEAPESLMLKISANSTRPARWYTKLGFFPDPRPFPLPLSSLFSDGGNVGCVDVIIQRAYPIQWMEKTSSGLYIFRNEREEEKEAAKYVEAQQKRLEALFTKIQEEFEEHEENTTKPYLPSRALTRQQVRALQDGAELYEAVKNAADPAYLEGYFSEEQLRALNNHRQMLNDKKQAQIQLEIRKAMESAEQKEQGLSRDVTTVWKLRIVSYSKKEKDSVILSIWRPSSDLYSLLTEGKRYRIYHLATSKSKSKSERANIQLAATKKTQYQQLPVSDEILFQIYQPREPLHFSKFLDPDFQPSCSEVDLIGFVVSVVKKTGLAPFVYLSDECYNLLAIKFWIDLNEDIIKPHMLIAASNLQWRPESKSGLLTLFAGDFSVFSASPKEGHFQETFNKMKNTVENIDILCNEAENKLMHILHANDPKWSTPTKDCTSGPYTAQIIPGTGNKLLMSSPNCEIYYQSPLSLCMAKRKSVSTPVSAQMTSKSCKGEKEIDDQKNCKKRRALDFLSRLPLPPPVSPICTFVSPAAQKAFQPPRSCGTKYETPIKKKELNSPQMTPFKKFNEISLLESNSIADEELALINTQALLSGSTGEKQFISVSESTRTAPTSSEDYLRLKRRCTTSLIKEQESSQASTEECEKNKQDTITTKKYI

No constants are given. Whether binding was seen depends on the method and setting. Binding seen in cells or lysates may run through a third protein. Some results given as binding are weak or reduced against the parent protein; the word gives no strength. Where a sequence is shown, tags or fusion partners need not be part of it.

In the assay the target is T1, GFP-HSF2BP (mouse), in HEK293T cells (mouse) (UniProt Q9D4G2).
T1 sequence: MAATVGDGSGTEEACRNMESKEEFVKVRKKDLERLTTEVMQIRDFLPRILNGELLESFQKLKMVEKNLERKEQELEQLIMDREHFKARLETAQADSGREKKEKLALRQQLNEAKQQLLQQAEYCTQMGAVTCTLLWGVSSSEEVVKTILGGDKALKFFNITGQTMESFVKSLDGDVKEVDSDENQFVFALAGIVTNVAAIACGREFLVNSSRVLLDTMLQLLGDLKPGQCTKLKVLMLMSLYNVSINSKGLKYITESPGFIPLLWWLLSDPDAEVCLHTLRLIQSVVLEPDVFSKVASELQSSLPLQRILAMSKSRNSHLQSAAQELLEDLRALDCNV
Put plainly: co-IP.

With “MBP-BRCA2 (human) (from UniProt P51587 1-3418)”, the binding result is on record as “binds”.
